Experimental data from PubChem BioAssay (NCATS).
This is one part of the list. The main result of the screen is listed elsewhere. These columns were measured beside it and carry no call. Most of these compounds were active or inconclusive in the main read-out, so they are no random draw. Potencies come from curve fits of mixed quality, noted in brackets.

Experiment: qHTS for identification of novel therapeutic agents for treatment of microphthalmiaassociated transcription factor (MiT) renal cell carcinoma (RCC) (AID 1963991)
Conditions: CellTiter-Glo, 48 h; for z-score: stronger effect = lower value
Summary of the method: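 Three TFE3-fusion RCC cell lines (UOK109, UOK124, UOK145), 500 cells/well, were exposed to the 1912-compound MIPE 4.0 library for 48 hours at 37 C. Viability was read by CellTiter-Glo luminescence, normalised to DMSO (100%) and empty wells (0%), with 11-concentration curve fits.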

[1] = TFE3-RCC UOK109 viability, measured here: UOK109 Z-AUC
[2] = TFE3-RCC viability, measured here: UOK124 Z-AUC
[3] = TFE3-RCC viability, measured here: UOK124 cell viability
[4] = TFE3-RCC viability, measured here: UOK145 Z-AUC
[5] = TFE3-RCC viability, measured here: UOK145 cell viability

SMILES: COc1cc(Cl)cn2c(-c3cccc(NC4CNC4)n3)cnc12
- z-score [1]: -0.0436
- z-score [2]: 0.185
- AC50 [3]: 23.5 µM [falling, single point]
- z-score [4]: -0.599
- AC50 [5]: 14.8 µM [falling, partial curve]

SMILES: Nc1nc2c(ncn2COC(CO)CO)c(=O)[nH]1
- z-score [1]: -0.201
- z-score [2]: -1.19
- AC50 [3]: 18.7 µM [falling, partial curve, poor fit]
- z-score [4]: -0.938
- AC50 [5]: 9.35 µM [falling, partial curve]

SMILES: NS(=O)(=O)OC[C@@H]1C[C@@H](n2ccc3c(N[C@H]4CCc5ccccc54)ncnc32)C[C@H]1O
- z-score [1]: -0.144
- z-score [2]: 0.377
- AC50 [3]: 3.72 µM [falling, full curve]
- z-score [4]: -1.08
- AC50 [5]: 2.96 µM [falling, full curve]

SMILES: CNc1nc(-c2ccc3c(N)n[nH]c3c2)cc(N2C[C@@H](C(=O)NC3CCCCC3)CC[C@@H]2C)n1
- z-score [1]: -0.236
- z-score [2]: -2.71
- AC50 [3]: 37.2 µM [falling, single point]
- z-score [4]: -0.301
- AC50 [5]: 14.8 µM [falling, partial curve]

SMILES: CO[C@@]12[C@H](COC(N)=O)C3=C(C(=O)C(C)=C(N)C3=O)N1C[C@@H]1N[C@@H]12
- z-score [1]: 0.122
- z-score [2]: -0.478
- AC50 [3]: 16.6 µM [falling, partial curve]
- z-score [4]: -0.502
- AC50 [5]: 1.32 µM [falling, full curve]

SMILES: CC[C@H](Nc1ncnc2nc[nH]c12)c1nc2cccc(F)c2c(=O)n1-c1ccccc1
- z-score [1]: -1.46
- z-score [2]: 2.04
- AC50 [3]: 10.5 µM [falling, partial curve, poor fit]
- z-score [4]: 0.276
- AC50 [5]: 13.2 µM [falling, partial curve]

SMILES: CC(=O)SCC(Cc1ccccc1)C(=O)NCC(=O)OCc1ccccc1 (stereo not given)
- z-score [1]: -0.549
- z-score [2]: 0.661
- AC50 [3]: 23.5 µM [falling, partial curve]
- z-score [4]: -0.344
- AC50 [5]: 2.64 µM [falling, full curve]

SMILES: Cc1cn2c(-c3cn[nH]c3)cnc2c(Nc2ccc(C(=O)N3CCNCC3)cc2F)n1
- z-score [1]: -0.241
- z-score [2]: -0.0216
- AC50 [3]: 11.8 µM [falling, partial curve]
- z-score [4]: -0.0145
- AC50 [5]: 18.7 µM [falling, partial curve]

SMILES: Cc1cc(OCCCc2c(C(=O)O)n(Cc3cccnc3)c3c(-c4c(COc5ccc(N6CCN([S+](C)(=O)[O-])CC6)cc5)nn(C)c4C)cccc23)cc(C)c1Cl
- z-score [1]: 0.653
- z-score [2]: 0.0109
- AC50 [3]: 16.6 µM [falling, partial curve, poor fit]
- z-score [4]: 0.381
- AC50 [5]: 0.935 µM [falling, partial curve, poor fit]

SMILES: CCOC(=O)N1CCN([N+]([O-])=NOc2cc(ON=[N+]([O-])N3CCN(C(=O)OCC)CC3)c([N+](=O)[O-])cc2[N+](=O)[O-])CC1
- z-score [1]: -0.0725
- z-score [2]: 0.201
- AC50 [3]: 26.4 µM [falling, single point]
- z-score [4]: 0.562
- AC50 [5]: 29.6 µM [falling, single point]

SMILES: COc1ccc(COc2cc3oc(=O)c4cc(C(C)O)ccc4c3cc2OC)cc1 (stereo not given)
- z-score [1]: 0.507
- z-score [2]: 2.18
- AC50 [3]: 23.5 µM [falling, single point]
- z-score [4]: 0.908
- AC50 [5]: 23.5 µM [falling, single point]

SMILES: COC(=O)N[C@H](C(=O)N1CCC[C@@H]1c1ncc(-c2ccc(-c3ccc(-c4cnc([C@@H]5CCCN5C(=O)[C@@H](NC(=O)OC)C(C)C)[nH]4)cc3)cc2)[nH]1)C(C)C
- z-score [1]: 0.246
- z-score [2]: 0.26
- AC50 [3]: 37.2 µM [falling, single point]
- z-score [4]: -0.718
- AC50 [5]: 37.2 µM [falling, single point]

SMILES: O=S(=O)(NCCNCC=Cc1ccc(Br)cc1)c1cccc2cnccc12
- z-score [1]: 0.771
- z-score [2]: 1.29
- AC50 [3]: 20.9 µM [falling, partial curve]
- z-score [4]: -0.311
- AC50 [5]: 23.5 µM [falling, partial curve]
